Data as given in PubChem BioAssay AID504784 (Drosophila RNAi Screening Center, 2011)
The screen tested about 17,000 reagents; below is an unselected part of those that have a named target and a result. 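Each column is one replicate's B-score; the combined score over replicates was not deposited, so single values may mislead.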 A plus sign joins genes that one reagent is predicted to hit. Reagent sequences are not shown.

Aim: 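Fly genes whose silencing alters how much lipid cells keep in droplets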 (primary screen)
System: Drosophila Kc167 embryonic cells
Reagents: long dsRNA against Drosophila genes, about 250 ng dsRNA per well
Duration: 4 days
Conditions: cells fed 400 µM oleic acid bound to BSA
Measurement: 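Cells imaged and segmented; ratio of lipid droplet area to nuclear area, log-transformed, then normalised as a B-score over the screen; higher means more stored lipid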
Scale: droplet/nuclear area B-score: higher = more stored lipid (overstorage)

| gene knocked down | DRSC id | droplet/nuclear area B-score, replicate 1 | droplet/nuclear area B-score, replicate 2 | droplet/nuclear area B-score, replicate 3 |
| --- | --- | --- | --- | --- |
| CG33307 | DRSC01349 | 0.814 | 0.195 | – |
| CG31313 | DRSC13044 | -1.84 | -2.16 | – |
| CG13559 | DRSC04197 | 1.76 | 0.0609 | – |
| CG31797 | DRSC02476 | 1.17 | -1.36 | – |
| CG31797 | DRSC02477 | -0.886 | -0.525 | – |
| CG31681 | DRSC00107 | -0.382 | -0.351 | – |
| MED1 (Mediator complex subunit 1) | DRSC11808 | 0.0223 | 2.01 | 1.19 |
| Ir11a (Ionotropic receptor 11a) | DRSC19699 | -1.66 | 0.387 | -0.991 |
| CG14511 | DRSC14863 | 0.213 | -0.871 | – |
| CG42795 | DRSC12772 | 1.05 | 0.0755 | – |
| CG42795 | DRSC15533 | -0.37 | -0.742 | – |
| CG33458 | DRSC22891 | -1.33 | 1.05 | – |
| Cyp318a1 (Cytochrome P450 318a1) | DRSC19784 | -1.09 | -1.22 | -0.00227 |
| mRRF1 (mitochondrial ribosome recycling factor 1) | DRSC10421 | -1.08 | -2.64 | – |
| Gs1l (GS1-like) | DRSC00754 | 0.587 | -0.128 | – |
| RhoGEF4 (Rho guanine nucleotide exchange factor 4) | DRSC11011 | -0.0196 | -0.891 | – |
| CG14418 | DRSC18637 | 1.5 | 0.437 | – |
| CG14418 | DRSC23051 | 1.28 | 0.625 | – |
| beat-IIIc (beaten path IIIc) | DRSC02438 | -0.346 | 0.636 | – |
| beat-IIIc (beaten path IIIc) | DRSC02949 | -0.309 | 0.123 | – |
| P58IPK | DRSC16404 | 0.402 | -0.00484 | – |
| CG30083 | DRSC05572 | 0.266 | -0.977 | – |
| CG18661 | DRSC02690 | -0.0893 | 0.401 | – |
| Reepl1 (Receptor accessory protein like 1) | DRSC19418 | -1.07 | -1.47 | -0.233 |
| Nadk1a (NAD kinase 1a) | DRSC05431 | 2.32 | 0.866 | – |
| Nadk1a (NAD kinase 1a) | DRSC06963 | 0.0392 | 0.179 | – |
| Abp1 (Actin binding protein 1) | DRSC09693 | -2.85 | -1.64 | – |
| Cpr49Ah (Cuticular protein 49Ah) | DRSC07204 | 0.553 | – | – |
| SLC22A (SLC22A family member) | DRSC11826 | -0.251 | -1.73 | – |
| SLC22A (SLC22A family member) | DRSC11827 | -0.724 | 0.00375 | – |
| CG18128 | DRSC04304 | -0.00966 | 0.239 | – |
| inaF-B + inaF-D + inaF-C + 1 more | DRSC20342 | 0.108 | 0.546 | -0.0711 |
| RpL39 (Ribosomal protein L39) | DRSC04651 | 2.89 | 6.27 | – |
| CG17819 | DRSC15279 | -1.04 | -2.58 | – |
| Marcal1 | DRSC02718 | 0.292 | 0.952 | – |
| Nup205 (Nucleoporin 205kD) | DRSC19432 | -1.71 | -0.795 | – |
| ND-MWFE (NADH dehydrogenase (ubiquinone) MWFE subunit) | DRSC06364 | 1.11 | -0.503 | – |
| Wnk (Wnk kinase) | DRSC11813 | 5.26 | 3.66 | – |
| CR33315 (pseudo) | DRSC22947 | 0.669 | -0.000844 | – |
| CG33255 (retired record) + hpRNA:CR32205 + hpRNA:CR32207 | DRSC09617 | -0.0421 | -1.01 | – |
| Npc2b (Niemann-Pick type C-2b) | DRSC15464 | 0.0212 | -0.11 | – |
| TfIIEbeta (Transcription factor IIEbeta) | DRSC08701 | -2.3 | -0.424 | – |
| stum (stumble) | DRSC04268 | -0.0456 | 0.0144 | – |
| stum (stumble) | DRSC04270 | -1.75 | 0.501 | – |
| Rsf1 (Repressor splicing factor 1) | DRSC03423 | 0.729 | 0.692 | – |
| Rsf1 (Repressor splicing factor 1) | DRSC21953 | 1.86 | 0.457 | – |
| Grx5 (Glutaredoxin 5) | DRSC19593 | -0.912 | 0.646 | – |
| CG1598 | DRSC06598 | -1.9 | 0.727 | – |
| Rab4 + CG42239 | DRSC05667 | -0.617 | 0.903 | – |
| CR15821 (pseudo) | DRSC08481 | -1.13 | 0.163 | – |
| CG8916 | DRSC20120 | 0.867 | -1.02 | – |
| Prosalpha4 (Proteasome alpha4 subunit) | DRSC20271 | -0.429 | 0.687 | – |
| CG5214 | DRSC15739 | 0.278 | 1.92 | -2.44 |
| CG5214 | DRSC22842 | 1.92 | -0.577 | – |
| BBS4 (Bardet-Biedl syndrome 4) | DRSC06352 | 0.524 | -0.74 | – |
| CG4766 | DRSC17736 | -0.0112 | -0.371 | – |
| CG15044 | DRSC19620 | 0.0547 | 6.45 | – |
| CG15044 | DRSC21385 | -0.679 | -0.312 | – |
| Cpr64Ab (Cuticular protein 64Ab) | DRSC08461 | -0.681 | -1.6 | – |
| CG12121 | DRSC17816 | -0.494 | 0.0367 | 1.76 |
| CG3719 | DRSC18493 | -0.0388 | -0.0538 | – |
| tup (tailup) | DRSC03627 | 0.382 | -0.367 | – |
| CG31176 | DRSC15038 | -0.584 | 0.672 | – |
| CG31176 | DRSC16021 | 0.626 | 0.889 | – |
| CG31344 | DRSC16069 | -1.09 | 0.507 | – |
| RpS19a (Ribosomal protein S19a) | DRSC20281 | 2.2 | 4.67 | – |
| CG6280 | DRSC06972 | 0.723 | 0.568 | – |
| CG17633 | DRSC02631 | -0.244 | -0.194 | – |
| lin (lines) | DRSC07644 | -2.06 | 0.0478 | – |
| Marf (Mitochondrial assembly regulatory factor) | DRSC18329 | 0.341 | -2.98 | 1 |
| spag (spaghetti) | DRSC04717 | 0.0352 | 0.0932 | – |
| CG31174 | DRSC13518 | 0.00733 | 0.937 | – |
| CG33301 | DRSC02778 | 0.561 | -0.043 | – |
| CG17717 | DRSC18130 | -1.55 | -0.187 | – |
| CG9518 | DRSC20194 | -1.06 | 0.00353 | – |
| CG13717 (retired record) | DRSC08116 | -1.49 | -0.898 | – |
| CG13717 (retired record) | DRSC08324 | 0.166 | 0.69 | – |
| CG13717 (retired record) | DRSC08326 | 2.39 | 2.24 | – |
| CG13717 (retired record) | DRSC21337 | 0.885 | 2.17 | – |
| CG13717 (retired record) | DRSC23087 | -0.194 | -0.678 | – |
| hbn (homeobrain) | DRSC04082 | -1 | 2.4 | – |
| hbn (homeobrain) | DRSC04238 | -0.574 | 1.46 | 0.731 |
| hbn (homeobrain) | DRSC04239 | -0.964 | -1 | – |
| hbn (homeobrain) | DRSC22436 | -1.56 | -0.0539 | – |
